# Reference: the supplement of paper PMC10849652
# Sequences of proteins named here, by UniProt entry; tags and fusion partners are left off. A change or cut given only in a name is not applied to a line headed by its entry.
# UniProt Q9BVQ7: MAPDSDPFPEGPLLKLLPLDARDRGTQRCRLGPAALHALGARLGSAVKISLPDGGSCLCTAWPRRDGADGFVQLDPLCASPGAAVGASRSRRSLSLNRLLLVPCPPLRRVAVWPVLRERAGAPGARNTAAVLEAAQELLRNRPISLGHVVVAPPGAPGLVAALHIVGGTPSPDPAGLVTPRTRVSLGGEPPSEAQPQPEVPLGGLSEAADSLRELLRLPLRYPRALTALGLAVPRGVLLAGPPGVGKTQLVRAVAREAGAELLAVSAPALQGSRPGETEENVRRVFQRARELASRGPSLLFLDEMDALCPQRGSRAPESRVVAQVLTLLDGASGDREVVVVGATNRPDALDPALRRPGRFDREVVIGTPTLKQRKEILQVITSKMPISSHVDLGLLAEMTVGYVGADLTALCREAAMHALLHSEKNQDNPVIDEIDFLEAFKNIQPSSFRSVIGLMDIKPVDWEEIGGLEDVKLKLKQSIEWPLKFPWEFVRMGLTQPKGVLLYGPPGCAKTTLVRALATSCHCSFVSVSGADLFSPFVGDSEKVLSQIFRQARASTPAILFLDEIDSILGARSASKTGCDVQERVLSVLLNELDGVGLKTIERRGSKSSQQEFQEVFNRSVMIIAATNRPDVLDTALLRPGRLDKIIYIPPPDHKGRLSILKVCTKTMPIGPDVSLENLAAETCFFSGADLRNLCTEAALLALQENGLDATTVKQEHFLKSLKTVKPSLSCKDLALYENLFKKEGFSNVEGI
# UniProt Q9C004: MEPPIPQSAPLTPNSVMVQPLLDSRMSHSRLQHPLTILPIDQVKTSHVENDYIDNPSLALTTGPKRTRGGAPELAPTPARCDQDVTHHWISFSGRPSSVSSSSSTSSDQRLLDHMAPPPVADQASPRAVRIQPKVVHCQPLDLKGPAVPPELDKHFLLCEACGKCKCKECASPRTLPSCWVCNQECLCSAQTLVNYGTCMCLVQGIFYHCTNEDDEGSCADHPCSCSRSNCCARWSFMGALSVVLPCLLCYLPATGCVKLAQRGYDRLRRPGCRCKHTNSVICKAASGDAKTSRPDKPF
# UniProt Q8N1F8: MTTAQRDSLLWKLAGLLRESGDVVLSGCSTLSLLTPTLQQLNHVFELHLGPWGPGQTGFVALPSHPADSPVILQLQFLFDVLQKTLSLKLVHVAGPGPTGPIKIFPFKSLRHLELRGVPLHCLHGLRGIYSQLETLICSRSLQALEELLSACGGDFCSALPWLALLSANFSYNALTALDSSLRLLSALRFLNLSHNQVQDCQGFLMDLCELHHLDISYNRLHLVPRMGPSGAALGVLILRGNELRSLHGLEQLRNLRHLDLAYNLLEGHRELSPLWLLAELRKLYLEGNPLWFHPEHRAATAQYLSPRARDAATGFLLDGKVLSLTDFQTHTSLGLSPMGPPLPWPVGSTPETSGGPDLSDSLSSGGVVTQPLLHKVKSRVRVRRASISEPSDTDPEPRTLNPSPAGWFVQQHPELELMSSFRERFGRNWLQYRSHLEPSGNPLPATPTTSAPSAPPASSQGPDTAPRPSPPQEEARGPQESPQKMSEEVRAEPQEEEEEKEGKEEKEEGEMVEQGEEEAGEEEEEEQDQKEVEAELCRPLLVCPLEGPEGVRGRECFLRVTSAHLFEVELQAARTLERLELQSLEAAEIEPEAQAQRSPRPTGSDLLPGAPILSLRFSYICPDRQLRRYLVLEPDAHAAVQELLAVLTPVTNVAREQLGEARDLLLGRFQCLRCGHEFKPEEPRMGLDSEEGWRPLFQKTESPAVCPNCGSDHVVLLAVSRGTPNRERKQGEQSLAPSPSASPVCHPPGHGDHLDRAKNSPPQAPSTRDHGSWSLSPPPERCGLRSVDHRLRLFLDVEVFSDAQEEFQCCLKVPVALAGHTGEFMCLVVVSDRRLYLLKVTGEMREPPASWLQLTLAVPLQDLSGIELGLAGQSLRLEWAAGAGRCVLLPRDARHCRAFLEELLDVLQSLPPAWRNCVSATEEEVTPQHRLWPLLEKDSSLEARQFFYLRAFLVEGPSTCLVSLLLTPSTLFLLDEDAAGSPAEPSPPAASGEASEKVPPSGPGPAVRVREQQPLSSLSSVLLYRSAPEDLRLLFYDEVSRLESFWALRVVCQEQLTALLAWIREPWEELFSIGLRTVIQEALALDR
# UniProt Q9H254, whole entry, looked up: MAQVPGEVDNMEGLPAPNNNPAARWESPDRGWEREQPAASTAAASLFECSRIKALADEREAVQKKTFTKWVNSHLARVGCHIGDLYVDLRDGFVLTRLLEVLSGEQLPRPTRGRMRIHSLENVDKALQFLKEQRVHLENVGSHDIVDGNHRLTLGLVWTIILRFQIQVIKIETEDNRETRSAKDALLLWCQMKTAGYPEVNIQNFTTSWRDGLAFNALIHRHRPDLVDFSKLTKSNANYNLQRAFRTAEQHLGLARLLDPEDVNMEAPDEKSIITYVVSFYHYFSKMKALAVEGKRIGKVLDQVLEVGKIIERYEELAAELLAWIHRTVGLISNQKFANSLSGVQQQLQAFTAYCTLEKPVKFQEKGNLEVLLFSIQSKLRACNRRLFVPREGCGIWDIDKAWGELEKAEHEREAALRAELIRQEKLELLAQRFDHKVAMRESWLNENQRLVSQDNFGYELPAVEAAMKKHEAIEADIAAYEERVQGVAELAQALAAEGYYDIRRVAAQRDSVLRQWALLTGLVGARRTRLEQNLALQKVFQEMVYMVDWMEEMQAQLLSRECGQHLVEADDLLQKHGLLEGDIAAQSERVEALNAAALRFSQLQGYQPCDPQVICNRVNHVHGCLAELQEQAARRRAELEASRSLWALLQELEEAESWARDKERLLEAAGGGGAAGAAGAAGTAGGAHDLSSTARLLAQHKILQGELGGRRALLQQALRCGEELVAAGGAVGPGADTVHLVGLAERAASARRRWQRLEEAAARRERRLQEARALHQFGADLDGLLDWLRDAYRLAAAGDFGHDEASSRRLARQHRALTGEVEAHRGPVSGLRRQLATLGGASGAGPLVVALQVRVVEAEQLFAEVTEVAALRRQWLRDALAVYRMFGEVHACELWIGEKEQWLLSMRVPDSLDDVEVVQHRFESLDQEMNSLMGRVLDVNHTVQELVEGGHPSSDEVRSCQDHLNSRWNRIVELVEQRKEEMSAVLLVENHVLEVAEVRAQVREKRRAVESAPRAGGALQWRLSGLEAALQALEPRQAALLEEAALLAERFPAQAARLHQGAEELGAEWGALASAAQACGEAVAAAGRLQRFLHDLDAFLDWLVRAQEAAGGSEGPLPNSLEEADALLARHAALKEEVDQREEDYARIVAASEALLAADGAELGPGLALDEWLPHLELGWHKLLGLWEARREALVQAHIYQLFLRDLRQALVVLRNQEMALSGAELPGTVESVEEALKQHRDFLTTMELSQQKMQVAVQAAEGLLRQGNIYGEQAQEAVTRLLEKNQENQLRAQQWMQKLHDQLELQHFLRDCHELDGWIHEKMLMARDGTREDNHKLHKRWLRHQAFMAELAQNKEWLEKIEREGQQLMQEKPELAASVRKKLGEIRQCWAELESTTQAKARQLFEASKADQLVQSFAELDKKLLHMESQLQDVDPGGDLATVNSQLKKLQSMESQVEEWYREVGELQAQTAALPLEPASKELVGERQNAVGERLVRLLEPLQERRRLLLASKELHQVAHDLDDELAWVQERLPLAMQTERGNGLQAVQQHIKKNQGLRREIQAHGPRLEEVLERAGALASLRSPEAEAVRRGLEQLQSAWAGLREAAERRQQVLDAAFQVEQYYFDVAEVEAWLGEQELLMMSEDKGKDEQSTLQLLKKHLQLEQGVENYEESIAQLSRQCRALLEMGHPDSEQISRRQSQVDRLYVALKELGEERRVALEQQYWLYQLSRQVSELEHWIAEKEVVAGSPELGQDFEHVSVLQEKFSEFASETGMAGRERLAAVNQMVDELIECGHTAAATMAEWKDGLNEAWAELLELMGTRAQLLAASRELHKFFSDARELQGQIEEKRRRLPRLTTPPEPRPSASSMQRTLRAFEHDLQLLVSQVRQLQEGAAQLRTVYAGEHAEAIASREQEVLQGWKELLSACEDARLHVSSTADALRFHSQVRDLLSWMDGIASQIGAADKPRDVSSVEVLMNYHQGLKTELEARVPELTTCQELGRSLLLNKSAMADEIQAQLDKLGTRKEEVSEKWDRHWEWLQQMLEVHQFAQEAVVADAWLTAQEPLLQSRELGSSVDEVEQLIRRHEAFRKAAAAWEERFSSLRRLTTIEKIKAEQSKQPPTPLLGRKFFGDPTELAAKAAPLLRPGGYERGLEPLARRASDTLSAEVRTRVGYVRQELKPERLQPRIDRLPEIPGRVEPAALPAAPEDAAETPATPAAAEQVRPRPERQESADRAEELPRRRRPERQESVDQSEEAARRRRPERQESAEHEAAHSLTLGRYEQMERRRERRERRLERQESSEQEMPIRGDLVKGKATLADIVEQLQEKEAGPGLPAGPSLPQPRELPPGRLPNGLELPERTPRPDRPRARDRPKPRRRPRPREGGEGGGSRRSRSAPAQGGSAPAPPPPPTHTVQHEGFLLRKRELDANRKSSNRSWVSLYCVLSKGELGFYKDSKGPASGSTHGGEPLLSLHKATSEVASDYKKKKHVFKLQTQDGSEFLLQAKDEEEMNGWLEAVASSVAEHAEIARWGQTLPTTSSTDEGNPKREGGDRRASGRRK
# UniProt Q9NSC7: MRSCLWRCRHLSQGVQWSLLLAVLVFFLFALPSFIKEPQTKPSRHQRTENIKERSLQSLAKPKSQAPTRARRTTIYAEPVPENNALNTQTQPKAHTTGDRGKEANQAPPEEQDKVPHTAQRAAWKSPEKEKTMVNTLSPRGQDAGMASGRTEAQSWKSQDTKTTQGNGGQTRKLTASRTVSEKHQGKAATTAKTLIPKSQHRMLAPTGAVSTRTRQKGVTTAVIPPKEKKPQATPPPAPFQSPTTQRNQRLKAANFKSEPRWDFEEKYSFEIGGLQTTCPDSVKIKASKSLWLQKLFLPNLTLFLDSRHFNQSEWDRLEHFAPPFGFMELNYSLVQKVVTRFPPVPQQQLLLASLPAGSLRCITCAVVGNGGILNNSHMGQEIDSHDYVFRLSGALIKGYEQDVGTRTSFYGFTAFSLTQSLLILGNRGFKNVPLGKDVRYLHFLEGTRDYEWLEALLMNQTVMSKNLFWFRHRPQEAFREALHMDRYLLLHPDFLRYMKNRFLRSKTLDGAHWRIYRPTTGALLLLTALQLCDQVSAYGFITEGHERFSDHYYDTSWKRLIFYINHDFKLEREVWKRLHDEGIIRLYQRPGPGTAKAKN
# UniProt Q9UH36: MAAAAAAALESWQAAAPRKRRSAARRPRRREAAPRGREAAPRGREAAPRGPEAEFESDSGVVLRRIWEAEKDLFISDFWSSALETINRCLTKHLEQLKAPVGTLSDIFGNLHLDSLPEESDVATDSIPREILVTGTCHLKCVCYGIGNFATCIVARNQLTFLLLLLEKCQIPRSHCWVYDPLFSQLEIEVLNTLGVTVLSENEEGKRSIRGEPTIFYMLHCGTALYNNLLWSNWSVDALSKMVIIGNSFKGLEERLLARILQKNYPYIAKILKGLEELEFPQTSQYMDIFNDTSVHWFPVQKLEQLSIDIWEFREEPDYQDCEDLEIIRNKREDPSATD
# UniProt Q13243: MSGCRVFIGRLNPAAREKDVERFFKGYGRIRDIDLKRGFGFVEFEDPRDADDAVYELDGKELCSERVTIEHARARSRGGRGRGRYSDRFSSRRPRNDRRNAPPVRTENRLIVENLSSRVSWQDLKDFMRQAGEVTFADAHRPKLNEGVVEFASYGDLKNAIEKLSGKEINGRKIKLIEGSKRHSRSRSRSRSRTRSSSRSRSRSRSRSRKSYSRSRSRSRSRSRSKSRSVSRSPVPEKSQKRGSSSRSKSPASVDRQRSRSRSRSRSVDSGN
# UniProt P09486: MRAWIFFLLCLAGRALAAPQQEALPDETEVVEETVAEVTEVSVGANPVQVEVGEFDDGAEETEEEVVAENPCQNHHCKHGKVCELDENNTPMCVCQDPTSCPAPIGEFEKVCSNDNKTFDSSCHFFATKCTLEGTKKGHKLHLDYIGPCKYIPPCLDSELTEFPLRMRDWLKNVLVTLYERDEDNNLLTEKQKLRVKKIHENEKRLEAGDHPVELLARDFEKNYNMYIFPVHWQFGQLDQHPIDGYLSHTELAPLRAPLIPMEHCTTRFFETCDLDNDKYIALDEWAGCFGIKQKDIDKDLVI
# UniProt Q11206: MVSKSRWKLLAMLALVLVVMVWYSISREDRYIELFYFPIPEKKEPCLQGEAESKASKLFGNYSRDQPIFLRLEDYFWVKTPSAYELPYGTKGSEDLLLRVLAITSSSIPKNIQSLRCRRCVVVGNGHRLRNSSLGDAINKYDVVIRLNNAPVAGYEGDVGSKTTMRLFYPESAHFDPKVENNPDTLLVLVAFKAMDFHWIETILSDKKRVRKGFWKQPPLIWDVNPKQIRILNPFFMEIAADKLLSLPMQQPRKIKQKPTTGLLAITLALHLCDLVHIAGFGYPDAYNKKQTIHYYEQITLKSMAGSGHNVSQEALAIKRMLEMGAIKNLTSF
# This is one part of the list.
# What was measured:
# Assay in all cases: log2 fold change, soluble protein after heating vs DMSO (PISA); higher = thermal stabilisation; K562 cells, 10 uM, 30 min; active = over 0.2 and 3.5 SD of the protein, either way, in both replicates (recomputed)
# erlotinib = compound: C#Cc1cccc(Nc2ncnc3cc(OCCOC)c(OCCOC)cc23)c1 [erlotinib]
# Method in brief: (§1)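 For each measurement, 10 μM compound was applied for 30 min to K562 cells at 2×10^6 cells/mL. Aliquots were heated for 3 min across 48°C-58°C, pooled, and extracted in PBS with 0.5% NP-40 at 4°C; the supernatant after 21,000xg for 90 min was soluble protein. This was quantified by TMTpro 16plex LC-MS/MS with channel sums equalised, and thermal stability was reported relative to control samples from duplicates, on a log2 fold-change scale.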
# [1] = compound: C/C(=N\NC(=O)C1=CC(=CC=C1)S(=O)(=O)N2CCOCC2)/C3=C(C=CC(=C3)Cl)O
# Method in brief: as §1
# [2] = compound: C1=CC(=C(C=C1Cl)C2=NC3=NC=CN=C3C(=N2)NC4=CC=NC=C4)F
# Method in brief: as §1
# [3] = compound: C1=CC(=CC=C1C2=NC3=C(N2)C=C(C=C3)C(=O)N)OC4=CC=C(C=C4)Cl
# Method in brief: as §1
# [4] = compound: C1=CC2=C(C=CC(=C2)/C=C\3/C(=O)NC(=NCC4=CC=CS4)S3)N=C1
# Method in brief: as §1
# [5] = compound: C1=CC2=NC=CN=C2C=C1/C=C/3\C(=O)NC(=O)S3
# Method in brief: as §1
# [6] = compound: C1=CC=C(C=C1)C2=NC(=C(N2)C3=CC=NC=C3)C4=CC(=C(C=C4)Cl)O
# Method in brief: as §1
# [7] = compound: C1=CC=C2C(=C1)C3=NNC4=CC=CC(=C43)C2=O
# Method in brief: as §1
# [8] = compound: C1CCN(C1)C(=O)NC2=CC=CC(=C2)NC3=NC=C(C(=N3)NCCC4=CN=CN4)Br
# Method in brief: as §1
# [9] = compound: C1CN(CCC1(CC2=CC=C(C=C2)Cl)N)C3=NC=NC4=C3C=CN4
# Method in brief: as §1
Target,log2 fold change (erlotinib),log2 fold change [1],log2 fold change [2],log2 fold change [3],log2 fold change [4],log2 fold change [5],log2 fold change [6],log2 fold change [7],log2 fold change [8],log2 fold change [9]
STIM1 (UniProt Q13586),inactive: -0.015,inactive: 0.01,inactive: 0.043,inactive: 0.014,inactive: 0.039,inactive: -0.007,inactive: -0.025,inactive: -0.067,inactive: -0.003,inactive: 0.016
SSR4 (UniProt P51571),inactive: -0.016,inactive: 0.055,inactive: 0.041,inactive: 0.051,inactive: 0.059,inactive: 0.007,inactive: -0.031,inactive: -0.002,inactive: 0,inactive: -0.025
SPATA5L1 (UniProt Q9BVQ7),inactive: 0.021,inactive: -0.054,inactive: -0.002,inactive: 0.03,inactive: 0.047,inactive: 0.005,inactive: 0.004,inactive: -0.029,inactive: -0.024,inactive: 0.052
SREK1IP1 (UniProt Q8N9Q2),inactive: -0.088,inactive: -0.11,inactive: -0.198,inactive: -0.036,inactive: -0.015,inactive: 0.019,inactive: -0.176,inactive: -0.024,inactive: 0.065,inactive: 0.011
SPRY4 (UniProt Q9C004),inactive: 0.003,inactive: -0.03,inactive: 0.039,inactive: 0.03,inactive: 0.024,inactive: 0.049,inactive: 0.073,inactive: -0.057,inactive: -0.04,inactive: 0.027
STK11IP (UniProt Q8N1F8),inactive: 0.025,inactive: 0.152,inactive: -0.079,inactive: -0.243,inactive: 0.094,inactive: 0.006,–,inactive: -0.062,inactive: 0.042,inactive: -0.01
SPTBN4 (UniProt Q9H254),inactive: 0.29,inactive: 0,inactive: -0.045,inactive: 0.078,inactive: 0.066,inactive: -0.027,inactive: 0.035,inactive: 0.061,inactive: 0.066,inactive: -0.05
SSU72 (UniProt Q9NP77),inactive: 0.119,inactive: 0.295,inactive: 0.084,inactive: 0.015,inactive: 0.22,inactive: 0.033,–,inactive: 0.024,inactive: -0.005,inactive: -0.063
ST6GALNAC1 (UniProt Q9NSC7),inactive: 0.026,inactive: -0.007,inactive: 0.005,inactive: 0.032,inactive: -0.045,inactive: -0.065,inactive: 0.037,inactive: -0.031,inactive: -0.061,inactive: 0.039
SRRD (UniProt Q9UH36),inactive: -0.032,inactive: -0.468,inactive: -0.008,inactive: -0.025,inactive: 0.133,inactive: 0.356,–,inactive: 0.072,inactive: 0.083,inactive: 0.084
SPTBN1 (UniProt Q01082),inactive: 0.003,inactive: 0.067,inactive: -0.065,inactive: 0.011,inactive: 0.03,inactive: 0.046,inactive: 0.021,inactive: -0.055,inactive: -0.067,inactive: -0.071
SPIRE1 (UniProt Q08AE8),inactive: 0.16,inactive: -0.264,active: -0.466,inactive: -0.119,inactive: 0.11,inactive: -0.034,inactive: 0.048,inactive: -0.063,inactive: 0.01,inactive: 0.145
SRSF5 (UniProt Q13243),inactive: -0.097,inactive: 0.012,inactive: -0.479,inactive: 0.096,inactive: -0.402,inactive: -0.028,inactive: -0.142,inactive: 0.046,inactive: -0.135,inactive: -0.146
SPARC (UniProt P09486),inactive: 0.082,inactive: 0.008,inactive: -0.005,inactive: -0.071,inactive: 0.018,inactive: 0.04,inactive: -0.068,inactive: 0.039,inactive: 0.012,inactive: 0.125
SRPK1 (UniProt Q96SB4),inactive: -0.262,inactive: -0.227,inactive: -0.465,inactive: 0.017,inactive: -0.113,inactive: 0.006,inactive: -0.033,inactive: -0.031,inactive: 0.043,inactive: -0.142
SRSF6 (UniProt Q13247),inactive: 0.084,inactive: 0.096,inactive: -0.072,inactive: 0.062,inactive: -0.325,inactive: 0.079,–,inactive: -0.251,inactive: 0.09,inactive: -0.154
STARD3NL (UniProt O95772),inactive: 0.004,inactive: -0.107,inactive: -0.004,inactive: -0.003,inactive: 0.169,inactive: 0.048,inactive: 0.11,inactive: 0.103,inactive: -0.013,inactive: 0.015
SPATA5 (UniProt Q8NB90),inactive: -0.042,inactive: -0.019,inactive: -0.028,inactive: -0.005,inactive: 0.015,inactive: 0.014,inactive: -0.005,inactive: 0,inactive: 0.011,inactive: 0.04
SPRYD7 (UniProt Q5W111),inactive: 0.043,inactive: -0.003,inactive: -0.031,inactive: -0.003,inactive: 0.117,inactive: 0.052,inactive: -0.004,inactive: -0.004,inactive: 0.059,inactive: 0.016
SPNS1 (UniProt Q9H2V7),inactive: 0.036,inactive: -0.001,inactive: 0.013,inactive: 0.065,inactive: 0.055,inactive: 0.065,inactive: 0.039,inactive: 0.018,inactive: -0.015,inactive: 0.026
STARD7 (UniProt Q9NQZ5),inactive: -0.021,inactive: 0.084,inactive: 0.024,inactive: 0.086,inactive: 0.031,inactive: 0.009,inactive: 0.017,inactive: 0.067,inactive: 0.006,inactive: -0.029
STAG1 (UniProt Q8WVM7),inactive: -0.039,inactive: 0.167,inactive: -0.016,inactive: 0.045,inactive: 0.033,inactive: 0.026,inactive: -0.036,inactive: -0.071,inactive: -0.076,inactive: -0.017
SRRM2 (UniProt Q9UQ35),inactive: 0.067,inactive: 0.095,inactive: -0.136,inactive: 0.07,inactive: -0.123,inactive: 0.014,inactive: -0.044,inactive: -0.073,inactive: -0.061,inactive: -0.128
SRSF10 (UniProt O75494),inactive: 0.004,inactive: -0.284,active: -0.701,inactive: 0.035,inactive: -0.044,inactive: 0.048,inactive: -0.148,inactive: -0.022,inactive: 0.063,inactive: -0.135
STAU2 (UniProt Q9NUL3),inactive: 0.064,inactive: -0.106,inactive: -0.021,inactive: -0.033,inactive: 0.007,inactive: -0.218,–,inactive: -0.051,inactive: 0.078,inactive: -0.001
ST3GAL4 isoform 4 (UniProt Q11206),inactive: -0.056,inactive: 0.004,inactive: -0.073,inactive: 0.088,inactive: -0.079,inactive: 0.034,–,inactive: 0.16,inactive: 0.078,inactive: -0.052
SPPL2A (UniProt Q8TCT8),inactive: -0.064,inactive: -0.131,inactive: -0.034,inactive: -0.096,inactive: -0.006,inactive: 0.078,inactive: 0.07,inactive: -0.048,inactive: 0.105,inactive: 0.01

# Single values from the list.
# log2 fold change [4] with SSR4 (UniProt P51571) reads inactive: 0.059
# log2 fold change [5] with SRRD (UniProt Q9UH36) reads inactive: 0.356
